# Assay results as given in paper PMC11696179, “Molecular condensation of the CO/NF-YB/NF-YC/FT complex gates floral transition in Arabidopsis” (The EMBO Journal, 2024).
# Chains of the proteins cited; added tags and fusions are not shown. Lines headed by an entry give the natural chain unless they say otherwise; changes in a name come on top.
# UniProt Q39057: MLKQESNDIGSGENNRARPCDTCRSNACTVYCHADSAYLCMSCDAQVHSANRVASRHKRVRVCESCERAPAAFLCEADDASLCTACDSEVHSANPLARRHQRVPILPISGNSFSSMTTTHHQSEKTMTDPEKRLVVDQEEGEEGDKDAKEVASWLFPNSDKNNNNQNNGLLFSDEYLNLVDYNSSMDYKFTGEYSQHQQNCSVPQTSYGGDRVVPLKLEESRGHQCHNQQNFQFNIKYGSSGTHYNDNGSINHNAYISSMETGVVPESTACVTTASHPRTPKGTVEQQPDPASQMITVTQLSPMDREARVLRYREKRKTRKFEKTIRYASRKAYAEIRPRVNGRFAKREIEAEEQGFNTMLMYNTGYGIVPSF
# UniProt Q8L4B2: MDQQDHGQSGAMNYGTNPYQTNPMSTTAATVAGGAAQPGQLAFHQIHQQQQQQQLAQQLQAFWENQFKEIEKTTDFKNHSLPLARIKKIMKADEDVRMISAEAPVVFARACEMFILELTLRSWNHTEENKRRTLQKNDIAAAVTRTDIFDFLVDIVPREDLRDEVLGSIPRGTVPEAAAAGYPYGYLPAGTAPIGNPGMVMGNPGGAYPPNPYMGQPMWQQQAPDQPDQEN
# No constants are given. Whether binding was seen depends on the method and setting. Binding calls can cover weak binding; strength is not graded here.
# Target: CO (CONSTANS), yeast two-hybrid fusion (Arabidopsis thaliana) (UniProt Q39057)
# Assay: two-hybrid; yeast AH109; pGBKT7 and pGADT7 fusions; growth on SD/-Trp/-Leu/-His with 10 mM 3-AT
substance,measurement,value
"NF-YC9-∆IDR1, yeast two-hybrid fusion (from UniProt Q8L4B2) (domain or fragment)",binding,binds
"NF-YC9-∆IDR2, yeast two-hybrid fusion (from UniProt Q8L4B2) (domain or fragment)",binding,binds
